{
  "source": "patent US6620424B1",
  "about": "“Process for producing glycolytic metabolism regulators” (Suntory Limited, priority 1998, dated 2003)",
  "origin": "cited, not measured here",
  "settings": "animal studies and clinical trials; cited from earlier work",
  "note": "At least one compound was matched to its structure with a doubt left.",
  "data": [
    {"smiles": "C[C@H]1O[C@H](O[C@H]2[C@H](O)[C@@H](O)[C@@H](O[C@H]3[C@H](O)[C@@H](O)C(O)O[C@@H]3CO)O[C@@H]2CO)[C@H](O)[C@@H](O)[C@@H]1N[C@H]1C=C(CO)[C@@H](O)[C@H](O)[C@H]1O", "note": "(stereo partly shown) [Acarbose]", "values": [
      {"measurement": "rapid increases (peaks) in postprandial blood glucose", "value": "suppressing rapid increases (peaks) in postprandial blood glucose"}
    ]}
  ]
}
